According to PubChem BioAssay AID1259354 (Paczesny and Yang Labs, IUPUI and University of Michigan, 2018):
Hit rate of the full screen: of about 78,000 compounds, about 1,800 (2.3%) were called active. The shares of active, inactive and inconclusive entries below differ from those in the screen. Rule as the data show it: active = inhibition above about 30%; inconclusive = mostly about 10% to 28%; inactive = weaker than that.

Amino acid sequences for entries named in this document (tags omitted). A change or cut given only in a name is not applied to a line headed by its entry.
UniProt Q01638: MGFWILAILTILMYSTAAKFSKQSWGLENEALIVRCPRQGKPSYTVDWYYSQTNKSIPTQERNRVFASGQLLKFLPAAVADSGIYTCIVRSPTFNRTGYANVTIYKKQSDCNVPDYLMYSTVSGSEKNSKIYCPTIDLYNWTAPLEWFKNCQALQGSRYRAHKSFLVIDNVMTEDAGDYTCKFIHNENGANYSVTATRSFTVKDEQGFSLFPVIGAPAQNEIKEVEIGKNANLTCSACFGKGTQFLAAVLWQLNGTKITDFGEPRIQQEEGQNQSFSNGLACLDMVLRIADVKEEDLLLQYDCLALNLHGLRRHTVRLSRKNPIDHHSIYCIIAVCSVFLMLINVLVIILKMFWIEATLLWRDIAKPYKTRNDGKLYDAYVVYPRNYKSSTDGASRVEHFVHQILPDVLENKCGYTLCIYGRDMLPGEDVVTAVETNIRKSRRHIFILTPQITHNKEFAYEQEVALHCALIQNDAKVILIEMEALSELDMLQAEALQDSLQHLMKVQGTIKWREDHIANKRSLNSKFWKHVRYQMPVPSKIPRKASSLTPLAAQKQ

Target: Interleukin-1 receptor-like 1 (Homo sapiens) (UniProt Q01638)
Assay: blocks human ST2 binding to IL-33, primary screen, biochemical, AlphaLISA (AID 1259354)
Conditions: AlphaLISA ST2-Fc/biotin-IL-33 interaction, 1 h; at 17 µM, hits give high values

Row | Compound | inhibition
1 | CN(C)CC1(O)CCCN(C(=O)CCc2nc3cccnc3n2C)C1 (stereo not given) | inconclusive: 10%
2 | CN1CCN(S(=O)(=O)c2ccc3c(c2)CCN3C(=O)C2CC2)CC1 | inconclusive: 12%
3 | COc1ccc(Nc2c(-c3ccc(N(C)C)cc3)nc3cnccn23)cc1 | inconclusive: 15%
4 | CCc1ccc(NS(=O)(=O)c2ccc3c(c2)C(=O)NC3)cc1 | inconclusive: 10%
5 | Clc1ccc(-c2nccn2CCC2CCCCO2)cc1 (stereo not given) | inconclusive: 14%
6 | Cc1[nH]c2ccccc2c1CC(=O)NCc1noc(C2CCCC2)n1 | inconclusive: 17%
7 | Cc1ccc(-n2c(SCC(=O)Nc3ccc(F)cc3F)nc3c(c2=O)SCC3)cc1 | inconclusive: 19%
8 | CSc1ccc(-c2nc3cnccn3c2Nc2ccc3c(c2)OCO3)cc1 | inconclusive: 20%
9 | Cc1ccc(N(CC(=O)N2CCCC(O)(CO)CC2)S(C)(=O)=O)cc1 (stereo not given) | inactive
10 | CCCCC(=O)Nc1ccc(C(=O)NC2CCCN(C(=O)C3CC3)C2)cc1 (stereo not given) | inconclusive: 10%
11 | O=C1C(c2cccc(Br)c2)N(Cc2ccccc2)C(=O)CN1C1CCCCC1 (stereo not given) | inactive
12 | OCCN(Cc1ccccc1)Cc1cccs1 | inactive
13 | CCCc1[nH]ncc1C(=O)N1CCC2(CN(C)C(=O)O2)C1 (stereo not given) | inactive
14 | Cc1nn(Cc2ccc(Cl)cc2)c(C)c1NC(=O)c1noc2c1CCCC2 | inconclusive: 12%
15 | Cc1cccc(C(=O)CC(c2ccccc2)C2C(=O)c3ccccc3C2=O)c1 (stereo not given) | inconclusive: 19%
16 | COC[C@H]1CCCN1C(=O)CC[C@@H]1CNC(=O)[C@@H]2C[C@H](NCc3ccc(OC)cc3)CN12 | inconclusive: 14%
17 | O[C@]12CO[C@H](c3ccc4c(c3)OCO4)[C@H]1CO[C@@H]2c1ccc2c(c1)OCO2 | inconclusive: 18%
18 | c1ccc(-n2nccc2CN2CCC(n3cc(C4CC4)nn3)CC2)cc1 | inconclusive: 10%
19 | O=C(Nc1ccc(-c2cccc(F)c2)cc1)C1CCCN1C(=O)c1ccccn1 (stereo not given) | inconclusive: 12%
20 | C=CC(C)(O)CCC1C(C)(O)CCC2C(C)(C)CCCC21C (stereo not given) | inactive
21 | CCCCOC(=O)C1=C(C)Nc2ncnn2C1c1ccccc1OCC (stereo not given) | inactive
22 | Cc1nc2c(c(N(C)Cc3cccc4cnccc34)n1)CNC2 | inactive
23 | CC(C)Cn1nc(C(=O)NC2CCCC2)c2c1CCN(C(=O)c1ccccc1-n1cccn1)C2 | inactive
24 | Cc1ccc(C)c(CNC(=O)c2cc(Cn3c(C)nc4ccccc43)[nH]n2)c1 | inconclusive: 15%

Row | Compound | inhibition
25 | COc1ccc(NC(=O)c2cc3cc4ccc(C)cc4nc3s2)c(OC)c1 | inconclusive: 14%
26 | Cc1ccc(NC(=O)CC(=O)N2CCCC3(CCNC3)C2)c(C)c1 (stereo not given) | inconclusive: 15%
27 | CC(C)C[C@H]1CN(C(=O)CCC(=O)Nc2nncs2)CC[C@@]1(C)O | inactive
28 | O=[N+]([O-])c1ccc(CN2CCN(c3ccccc3F)CC2)o1 | inconclusive: 23%
29 | CC1=C(C(=O)Nc2ccc(C)cn2)C(c2ccc(F)cc2)C2=C(CCCC2=O)N1 (stereo not given) | inconclusive: 19%
30 | CCOC(=O)C1(Cc2ccccc2F)CCCN(C(=O)c2ccc(-n3ccnc3)cc2)C1 (stereo not given) | inactive
31 | Cc1nc(=O)c(-c2ccccc2)c(C)n1CC1CCCO1 (stereo not given) | inconclusive: 13%
32 | CCCN(Cc1nccn1C)C(=O)c1cnc(CC)nc1 | inactive
33 | N=C1S/C(=C\c2ccc(N3CCOCC3)cc2)C(=O)N1c1ccccc1Cl | active: 31%
34 | Cc1cccc(C)c1-n1nnnc1S(C)(=O)=O | inactive
35 | N=C1S/C(=C\c2ccc(N3CCOCC3)cc2)C(=O)N1c1ccc(Br)cc1 | active: 32%
36 | CN1Cc2[nH]cnc2C[C@H]1C(=O)N1CCC(Cc2ccccc2)CC1 | inconclusive: 28%
37 | CCNc1nc(NC(C)C)nc(Oc2ccc(/C=N\O)cc2)n1 | inconclusive: 20%
38 | C=CCN(CC=C)C(=O)C(c1ccccc1)c1ccccc1 | inactive
39 | CCOc1ccc2nc(N3CCCC(C(=O)NCCOc4cccnc4)C3)nc(C)c2c1 (stereo not given) | inconclusive: 15%
40 | CC(c1cccnc1)N(C)Cc1ccc(-c2ccccn2)cc1 (stereo not given) | inconclusive: 10%
41 | O=C1CCCN1C1CCN(Cc2cnc(C3CCCCC3)nc2)CC1 | inconclusive: 22%
42 | CC(C)CN(Cc1cnn(C)c1)C(=O)c1cccc2c(=O)c3ccccc3[nH]c12 | inconclusive: 13%
43 | CC1CCN(Cc2cc(Cn3ccnc3)c3cccnc3c2O)CC1 | active: 51%
44 | CN(C)CCN(C)Cc1ccc(Cl)cc1 | inactive
45 | COc1cc(NC(=S)N[C@H]2CO[C@H]3[C@@H]2OC[C@H]3OC)cc(OC)c1 | inconclusive: 21%
46 | O=C1NCCN(Cc2cccc3ccccc23)C1CC(=O)N1CCN(c2cnccn2)CC1 (stereo not given) | inactive
47 | COc1cc(C2CC(=O)N(Cc3ccccc3)c3ccccc3S2)cc(OC)c1OC (stereo not given) | inactive
48 | COc1ccnc(CN2CCCC(C(=O)c3cc(C)c(OC)c(C)c3)C2)c1OC (stereo not given) | inconclusive: 12%

Row | Compound | inhibition
49 | CC1CN(c2ccccc2)CCN1C(=O)CCN1CCCCCC1=O (stereo not given) | inactive
50 | O=C(O)c1ccc(CN2C[C@H](O)C[C@H]2c2nc(-c3ccc(F)cc3)no2)cc1 | inactive
51 | Cc1[nH]nc(SCC(=O)NCCCN2CCOCC2)c1[N+](=O)[O-] | inactive
52 | CC(CCc1c[nH]c2ccccc12)NCc1n[nH]c2c1CCC2 (stereo not given) | inconclusive: 11%
53 | O=C(Oc1ccccc1)c1cc2cc(Br)ccc2oc1=O | inconclusive: 14%
54 | Cc1cccc(CSc2nnc3sc4ccccc4n23)c1 | inactive
55 | O=C(Nc1nccs1)c1ccc2c(c1)C(=O)N(Cc1ccccc1)C2=O | inactive
56 | COc1cccc(Nc2nc(-c3ccccc3)cs2)c1 | inconclusive: 12%
57 | Cc1ccsc1CN1CCN(c2ccc(Cl)cc2)CC1 | inconclusive: 14%
58 | CC(C)Cc1cc(CN2CCCCC2C(=O)Nc2ccc(-n3cccn3)cc2)[nH]n1 (stereo not given) | inconclusive: 10%
59 | Cc1ccc2[nH]c(=O)cc(C(=O)NC3CC(=O)N(CC4CCCCC4)C3)c2c1 (stereo not given) | inconclusive: 20%
60 | O=c1c2c(nc(SCc3ccc(Br)cc3)n1-c1ccccc1)CCS2 | inconclusive: 18%
61 | CN1C(=O)Cc2cc(S(=O)(=O)CCC(=O)N3CCN(c4cccc(C(F)(F)F)c4)CC3)ccc21 | inactive
62 | COCCO[C@H]1[C@H](NC(=O)C(C)C)c2ccccc2C12CCN(C(=O)[C@@H](O)c1ccccc1)CC2 | inactive
63 | COc1ccc(C)cc1NC(=O)C(c1ccccc1)c1ccccc1 | inconclusive: 10%
64 | O=C(c1noc2c1CCCC2)N1CCN(c2ccc(F)cc2)CC1 | inconclusive: 10%
65 | CCn1c(CCc2nc3ccccc3[nH]2)n[nH]c1=O | inconclusive: 20%
66 | CCCSc1nnc2c(n1)OC(c1ccc(C)o1)Nc1ccccc1-2 (stereo not given) | inactive
67 | Cn1ccnc1-c1ccc(NCCc2c[nH]c3ccccc23)nn1 | inconclusive: 14%
68 | O=C(Nc1cnc2n1CCCC2)c1nccnc1C(=O)N1CCCCC1 | inconclusive: 17%
69 | COc1ccc2[nH]cc(C(=O)c3ccc(C)cc3)c(=O)c2c1 | inactive
70 | Brc1ccc(CSc2c[nH]c3ccccc23)cc1 | inconclusive: 10%
71 | O=C(Nc1nc2c(s1)CCCC2)c1cccs1 | inconclusive: 12%
72 | CSc1ccc(-c2nc(CSCC(=O)NCC3CCCO3)c(C)o2)cc1 (stereo not given) | inactive

Row | Compound | inhibition
73 | O=C1C=CC(=NS(=O)(=O)c2ccc(Cl)cc2)c2ccccc21 | active: 60%
74 | O=C(c1ccc2c(c1)OCO2)C1CCCN(C(=O)Cn2c(=O)oc3ccccc32)C1 (stereo not given) | inactive
75 | COc1ccc(N2C(=O)[C@@H]3[C@@H](CCN3C(=O)C(C)(C)C)N(Cc3ccccc3)C2=O)cc1 | inconclusive: 25%
76 | CCN(CC)C(=O)Cn1cnc2sc(C(=O)Nc3cccc(Cl)c3)c(C)c2c1=O | inconclusive: 16%
77 | CC1=C(C(=O)N2CCCCC2)C(c2ccc(Br)cc2)n2ncnc2N1 (stereo not given) | inactive
78 | Cc1cccc(NC(c2cccc(C)n2)c2ccc3ccc(C)nc3c2O)n1 (stereo not given) | inactive
79 | Cc1ccc(-n2ncc3c(NC4CCCCC4)ncnc32)c(C)c1 | inconclusive: 13%
80 | CC(C)(C)c1ccc(C(=O)N2CCCC(CO)(Cc3ccccc3F)C2)cc1 (stereo not given) | inconclusive: 18%
81 | O=C(NCCSc1c[nH]c2ccccc12)c1ccccc1F | inactive
82 | CC(Cc1cccs1)Nc1ccnc(C(=O)NCc2cccnc2)c1 (stereo not given) | inconclusive: 19%
83 | CCSc1nnc(NC(=O)CN2CCN(S(=O)(=O)CC)CC2)s1 | inconclusive: 27%
84 | CCc1nccn1CCC(=O)NC1CCCc2c1cnn2-c1ccc(F)cc1F (stereo not given) | inconclusive: 22%
85 | Cc1cc(C(=O)Nc2ccccc2Sc2c(C)n[nH]c2C)n[nH]1 | inactive
86 | COc1ccc(C2C3=C(CC(C)(C)CC3=O)Nc3nc(SCc4ccccc4)nn32)cc1OC (stereo not given) | inconclusive: 11%
87 | CC12CC(NC(=O)N1c1ccc(C(=O)NC3CCCCC3)cc1)c1ccccc1O2 (stereo not given) | inconclusive: 15%
88 | CC1(C)CC(=O)C2=C(C1)Nc1ccccc1NC2/C(Br)=C\c1ccccc1 (stereo not given) | inconclusive: 10%
89 | COc1ccc(-n2c(SC)nc3sc4c(c3c2=O)CC(C)(C)OC4)cc1 | inactive
90 | C[C@@H]1CN(CCC(=O)N2CCC3(CCN(C)CC3)C2)C[C@H](C)O1 | inconclusive: 17%
91 | C=CCN1C(=O)/C(=C\c2ccccc2O)SC1=Nc1ccccc1 | inconclusive: 16%
92 | CCN(CC)[C@H]1[C@@H]2OC[C@@H](O2)[C@@H](NC(=O)Nc2cccc(C(F)(F)F)c2)[C@@H]1O | inconclusive: 18%
93 | O=C(NCc1ccc(F)cc1)C1C2C=CC3(CN(Cc4ccccc4)C(=O)C13)O2 (stereo not given) | inactive
94 | Fc1ccccc1-c1nnc(-c2ccncc2)o1 | inactive
95 | CN1CCN(C(=O)c2cc3n(n2)CCN(Cc2c[nH]c4ccc(F)cc24)C3)CC1 | inconclusive: 16%

Taken from above.
For inhibition, `COc1ccc(C)cc1NC(=O)C(c1ccccc1)c1ccccc1` reads inconclusive: 10%
For inhibition, `COc1cc(C2CC(=O)N(Cc3ccccc3)c3ccccc3S2)cc(OC)c1OC` (stereo not given) reads inactive
For inhibition, `O=C1CCCN1C1CCN(Cc2cnc(C3CCCCC3)nc2)CC1` reads inconclusive: 22%
For inhibition, `CC1(C)CC(=O)C2=C(C1)Nc1ccccc1NC2/C(Br)=C\c1ccccc1` (stereo not given) reads inconclusive: 10%
For inhibition, `COc1ccc(-n2c(SC)nc3sc4c(c3c2=O)CC(C)(C)OC4)cc1` reads inactive
For inhibition, `CC(CCc1c[nH]c2ccccc12)NCc1n[nH]c2c1CCC2` (stereo not given) reads inconclusive: 11%
For inhibition, `CC1CN(c2ccccc2)CCN1C(=O)CCN1CCCCCC1=O` (stereo not given) reads inactive
